Entries after “also recorded” stand apart in the source; their conditions may differ. At least one structure is not confirmed: it was looked up by name or label, or the drawing left a doubt.
Legend:
S. epidermidis [1] = experiment: In vitro growth assay (plating, colony count); type: cell-based; settings: added to low nutrient medium, 37° C., plated and counted; FIGS. 1 and 2
Description: Potential growth-enhancing compounds that are effective in the stabilization of the microbiome were tested by the following in vitro assay. Overnight cultures of S. epidermidis is inoculated in 20 ml CASO medium and incubated at 37° C. The culture was then diluted and adjusted to an OD600 of 0.25. From this suspension, the starting culture is prepared with a concentration of 5×10^5 CFU/ml by a 1:200 dilution in CASO deficiency medium. Subsequently, solutions containing the different active ingredients were mixed with the start cultures and incubated in a thermal mixer at 37° C. by shaking. Samples are taken at the respective time points for testing, diluted with NaCl and plated out on CASO plates using the spiral plater. The plates are incubated for 24 h at 37° C. and then counted.

S. epidermidis [2] = experiment: In vitro growth assay (OD, absorption at 600 nm); type: cell-based; settings: CASO deficiency medium; for Growth S. epidermidis: 37° C., absorption 600 nm over 24-30 h
Description: Overnight cultures of S. epidermidis were inoculated in 20 ml CASO medium and incubated at 37° C. The culture was then diluted and adjusted to an OD600 of 0.25. From this suspension, the starting culture is prepared with a concentration of 5×10^5 CFU/ml by a 1:200 dilution in CASO deficiency medium. Subsequently, solutions containing the different nitrogen, carbon, and lipid sources were mixed with the start cultures and 200 μl/well were pipetted into a 96 well flat transparent plate, at least in triplets. The plate was placed in a Tecan Reader at 37° C. and Absorption was measured at 600 nm every hour over a period of 24-30 h.

Q: How did the “growth of S. epidermidis within 24 hours” value (S. epidermidis [1]) turn out when `CC(=O)C(=O)O` [Pyruvate, pyruvate] was run?
A: The value was “significant growth; also recorded: significantly promotes the growth”.

Q: And the “growth of S. epidermidis (summary in words of Tables 2 and 3)” value (S. epidermidis [2]; OD assay)?
A: The value was “support the growth”.

Q: Which results are given for `CC(O)C(=O)O` (centres unmarked) [Lactate, lactate]?
A: Growth S. epidermidis (S. epidermidis [2]; Table 2, substance at 0.10%): +; Growth S. epidermidis (S. epidermidis [2]; Table 2, substance at 1.00%): ++; Growth S. epidermidis (S. epidermidis [2]; Table 3, substance at 1.00%): ++

— patent US12447121B2, “Composition for promoting the skin microbiome” (BEIERSDORF AG, priority 2020, dated 2025)
